Article PMC9277853

Target: T1, Flag-HA-RNF8 (UniProt O76064)
T1 sequence: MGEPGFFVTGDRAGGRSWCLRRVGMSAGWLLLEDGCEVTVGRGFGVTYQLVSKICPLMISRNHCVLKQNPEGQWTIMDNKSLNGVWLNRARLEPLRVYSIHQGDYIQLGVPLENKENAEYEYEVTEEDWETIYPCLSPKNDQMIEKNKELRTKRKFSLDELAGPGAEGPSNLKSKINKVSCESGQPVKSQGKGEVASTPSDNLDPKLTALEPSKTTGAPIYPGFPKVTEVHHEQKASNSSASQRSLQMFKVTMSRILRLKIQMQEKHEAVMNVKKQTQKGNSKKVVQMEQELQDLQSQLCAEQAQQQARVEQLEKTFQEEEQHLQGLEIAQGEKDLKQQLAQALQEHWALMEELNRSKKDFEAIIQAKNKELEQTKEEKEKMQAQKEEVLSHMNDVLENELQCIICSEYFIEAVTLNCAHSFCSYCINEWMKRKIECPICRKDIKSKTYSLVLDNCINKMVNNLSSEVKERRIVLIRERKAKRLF
Experiment: affinity purification with mass spectrometry; two-way screen: cells transfected with Flag-HA-RNF8, IP on anti-Flag-M2 beads, eluate IP on anti-HA beads; in parallel IP with an anti-RNF8 antibody; SDS-PAGE, silver staining, bands to LC-MS; the two protein sets intersected (218 proteins)

B1: GTF2H4 (protein, UniProt Q92759 1-462)
chain: MESTPSRGLNRVHLQCRNLQEFLGGLSPGVLDRLYGHPATCLAVFRELPSLAKNWVMRMLFLEQPLPQAAVALWVKKEFSKAQEESTGLLSGLRIWHTQLLPGGLQGLILNPIFRQNLRIALLGGGKAWSDDTSQLGPDKHARDVPSLDKYAEERWEVVLHFMVGSPSAAVSQDLAQLLSQAGLMKSTEPGEPPCITSAGFQFLLLDTPAQLWYFMLQYLQTAQSRGMDLVEILSFLFQLSFSTLGKDYSVEGMSDSLLNFLQHLREFGLVFQRKRKSRRYYPTRLAINLSSGVSGAGGTVHQPGFIVVETNYRLYAYTESELQIALIALFSEMLYRFPNMVVAQVTRESVQQAIASGITAQQIIHFLRTRAHPVMLKQTPVLPPTITDQIRLWELERDRLRFTEGVLYNQFLSQVDFELLLAHARELGVLVFENSAKRLMVVTPAGHSDVKRFWKRQKHSS
binding: binds

B4: MCM3 (protein, UniProt P25205 1-808)
chain: MAGTVVLDDVELREAQRDYLDFLDDEEDQGIYQSKVRELISDNQYRLIVNVNDLRRKNEKRANRLLNNAFEELVAFQRALKDFVASIDATYAKQYEEFYVGLEGSFGSKHVSPRTLTSCFLSCVVCVEGIVTKCSLVRPKVVRSVHYCPATKKTIERRYSDLTTLVAFPSSSVYPTKDEENNPLETEYGLSVYKDHQTITIQEMPEKAPAGQLPRSVDVILDDDLVDKAKPGDRVQVVGTYRCLPGKKGGYTSGTFRTVLIACNVKQMSKDAQPSFSAEDIAKIKKFSKTRSKDIFDQLAKSLAPSIHGHDYVKKAILCLLLGGVERDLENGSHIRGDINILLIGDPSVAKSQLLRYVLCTAPRAIPTTGRGSSGVGLTAAVTTDQETGERRLEAGAMVLADRGVVCIDEFDKMSDMDRTAIHEVMEQGRVTIAKAGIHARLNARCSVLAAANPVYGRYDQYKTPMENIGLQDSLLSRFDLLFIMLDQMDPEQDREISDHVLRMHRYRAPGEQDGDAMPLGSAVDILATDDPNFSQEDQQDTQIYEKHDNLLHGTKKKKEKMVSAAFMKKYIHVAKIIKPVLTQESATYIAEEYSRLRSQDSMSSDTARTSPVTARTLETLIRLATAHAKARMSKTVDLQDAEEAVELVQYAYFKKVLEKEKKRKKRSEDESETEDEEEKSQEDQEQKRKRRKTRQPDAKDGDSYDPYDFSDTEEEMPQVHTPKTADSQETKESQKVELSESRLKAFKVALLDVFREAHAQSIGMNRLTESINRDSEEPFSSVEIQAALSKMQDDNQVMVSEGIIFLI
binding: binds

B5: GTF2H3 (protein, UniProt Q13889 1-308)
chain: MVSDEDELNLLVIVVDANPIWWGKQALKESQFTLSKCIDAVMVLGNSHLFMNRSNKLAVIASHIQESRFLYPGKNGRLGDFFGDPGNPPEFNPSGSKDGKYELLTSANEVIVEEIKDLMTKSDIKGQHTETLLAGSLAKALCYIHRMNKEVKDNQEMKSRILVIKAAEDSALQYMNFMNVIFAAQKQNILIDACVLDSDSGLLQQACDITGGLYLKVPQMPSLLQYLLWVFLPDQDQRSQLILPPPVHVDYRAACFCHRNLIEIGYVCSVCLSIFCNFSPICTTCETAFKISLPPVLKAKKKKLKVSA
binding: binds

B9: DEK (protein, UniProt P35659 1-375)
chain: MSASAPAAEGEGTPTQPASEKEPEMPGPREESEEEEDEDDEEEEEEEKEKSLIVEGKREKKKVERLTMQVSSLQREPFTIAQGKGQKLCEIERIHFFLSKKKTDELRNLHKLLYNRPGTVSSLKKNVGQFSGFPFEKGSVQYKKKEEMLKKFRNAMLKSICEVLDLERSGVNSELVKRILNFLMHPKPSGKPLPKSKKTCSKGSKKERNSSGMARKAKRTKCPEILSDESSSDEDEKKNKEESSDDEDKESEEEPPKKTAKREKPKQKATSKSKKSVKSANVKKADSSTTKKNQNSSKKESESEDSSDDEPLIKKLKKPPTDEELKETIKKLLASANLEEVTMKQICKKVYENYPTYDLTERKDFIKTTVKELIS
binding: binds

Further lines, results first:

binding: binds
B2: NFKB2 (protein, UniProt Q00653 1-900)
chain: MESCYNPGLDGIIEYDDFKLNSSIVEPKEPAPETADGPYLVIVEQPKQRGFRFRYGCEGPSHGGLPGASSEKGRKTYPTVKICNYEGPAKIEVDLVTHSDPPRAHAHSLVGKQCSELGICAVSVGPKDMTAQFNNLGVLHVTKKNMMGTMIQKLQRQRLRSRPQGLTEAEQRELEQEAKELKKVMDLSIVRLRFSAFLRASDGSFSLPLKPVISQPIHDSKSPGASNLKISRMDKTAGSVRGGDEVYLLCDKVQKDDIEVRFYEDDENGWQAFGDFSPTDVHKQYAIVFRTPPYHKMKIERPVTVFLQLKRKRGGDVSDSKQFTYYPLVEDKEEVQRKRRKALPTFSQPFGGGSHMGGGSGGAAGGYGGAGGGGSLGFFPSSLAYSPYQSGAGPMGCYPGGGGGAQMAATVPSRDSGEEAAEPSAPSRTPQCEPQAPEMLQRAREYNARLFGLAQRSARALLDYGVTADARALLAGQRHLLTAQDENGDTPLHLAIIHGQTSVIEQIVYVIHHAQDLGVVNLTNHLHQTPLHLAVITGQTSVVSFLLRVGADPALLDRHGDSAMHLALRAGAGAPELLRALLQSGAPAVPQLLHMPDFEGLYPVHLAVRARSPECLDLLVDSGAEVEATERQGGRTALHLATEMEELGLVTHLVTKLRANVNARTFAGNTPLHLAAGLGYPTLTRLLLKAGADIHAENEEPLCPLPSPPTSDSDSDSEGPEKDTRSSFRGHTPLDLTCSTKVKTLLLNAAQNTMEPPLTPPSPAGPGLSLGDTALQNLEQLLDGPEAQGSWAELAERLGLRSLVDTYRQTTSPSGSLLRSYELAGGDLAGLLEALSDMGLEEGVRLLRGPETRDKLPSTAEVKEDSAYGSQSVEQEAEKLGPPPEPPGGLCHGHPQPQVH

binding: binds
B3: PRPF6 (protein, UniProt O94906 1-941)
chain: MNKKKKPFLGMPAPLGYVPGLGRGATGFTTRSDIGPARDANDPVDDRHAPPGKRTVGDQMKKNQAADDDDEDLNDTNYDEFNGYAGSLFSSGPYEKDDEEADAIYAALDKRMDERRKERREQREKEEIEKYRMERPKIQQQFSDLKRKLAEVTEEEWLSIPEVGDARNKRQRNPRYEKLTPVPDSFFAKHLQTGENHTSVDPRQTQFGGLNTPYPGGLNTPYPGGMTPGLMTPGTGELDMRKIGQARNTLMDMRLSQVSDSVSGQTVVDPKGYLTDLNSMIPTHGGDINDIKKARLLLKSVRETNPHHPPAWIASARLEEVTGKLQVARNLIMKGTEMCPKSEDVWLEAARLQPGDTAKAVVAQAVRHLPQSVRIYIRAAELETDIRAKKRVLRKALEHVPNSVRLWKAAVELEEPEDARIMLSRAVECCPTSVELWLALARLETYENARKVLNKARENIPTDRHIWITAAKLEEANGNTQMVEKIIDRAITSLRANGVEINREQWIQDAEECDRAGSVATCQAVMRAVIGIGIEEEDRKHTWMEDADSCVAHNALECARAIYAYALQVFPSKKSVWLRAAYFEKNHGTRESLEALLQRAVAHCPKAEVLWLMGAKSKWLAGDVPAARSILALAFQANPNSEEIWLAAVKLESENDEYERARRLLAKARSSAPTARVFMKSVKLEWVQDNIRAAQDLCEEALRHYEDFPKLWMMKGQIEEQKEMMEKAREAYNQGLKKCPHSTPLWLLLSRLEEKIGQLTRARAILEKSRLKNPKNPGLWLESVRLEYRAGLKNIANTLMAKALQECPNSGILWSEAIFLEARPQRRTKSVDALKKCEHDPHVLLAVAKLFWSQRKITKAREWFHRTVKIDSDLGDAWAFFYKFELQHGTEEQQEEVRKRCESAEPRHGELWCAVSKDIANWQKKIGDILRLVAGRIKNTF

binding: binds
B6: TXN (protein, UniProt P10599 1-105)
chain: MVKQIESKTAFQEALDAAGDKLVVVDFSATWCGPCKMIKPFFHSLSEKYSNVIFLEVDVDDCQDVASECEVKCMPTFQFFKKGQKVGEFSGANKEKLEATINELV

binding: binds
B7: MYBBP1A (protein, UniProt Q9BQG0 1-1328)
chain: MESRDPAQPMSPGEATQSGARPADRYGLLKHSREFLDFFWDIAKPEQETRLAATEKLLEYLRGRPKGSEMKYALKRLITGLGVGRETARPCYSLALAQLLQSFEDLPLCSILQQIQEKYDLHQVKKAMLRPALFANLFGVLALFQSGRLVKDQEALMKSVKLLQALAQYQNHLQEQPRKALVDILSEVSKATLQEILPEVLKADLNIILSSPEQLELFLLAQQKVPSKLKKLVGSVNLFSDENVPRLVNVLKMAASSVKKDRKLPAIALDLLRLALKEDKFPRFWKEVVEQGLLKMQFWPASYLCFRLLGAALPLLTKEQLHLVMQGDVIRHYGEHVCTAKLPKQFKFAPEMDDYVGTFLEGCQDDPERQLAVLVAFSSVTNQGLPVTPTFWRVVRFLSPPALQGYVAWLRAMFLQPDLDSLVDFSTNNQKKAQDSSLHMPERAVFRLRKWIIFRLVSIVDSLHLEMEEALTEQVARFCLFHSFFVTKKPTSQIPETKHPFSFPLENQAREAVSSAFFSLLQTLSTQFKQAPGQTQGGQPWTYHLVQFADLLLNHSHNVTTVTPFTAQQRQAWDRMLQTLKELEAHSAEARAAAFQHLLLLVGIHLLKSPAESCDLLGDIQTCIRKSLGEKPRRSRTKTIDPQEPPWVEVLVEILLALLAQPSHLMRQVARSVFGHICSHLTPRALQLILDVLNPETSEDENDRVVVTDDSDERRLKGAEDKSEEGEDNRSSESEEESEGEESEEEERDGDVDQGFREQLMTVLQAGKALGGEDSENEEELGDEAMMALDQSLASLFAEQKLRIQARRDEKNKLQKEKALRRDFQIRVLDLVEVLVTKQPENALVLELLEPLLSIIRRSLRSSSSKQEQDLLHKTARIFTHHLCRARRYCHDLGERAGALHAQVERLVQQAGRQPDSPTALYHFNASLYLLRVLKGNTAEGCVHETQEKQKAGTDPSHMPTGPQAASCLDLNLVTRVYSTALSSFLTKRNSPLTVPMFLSLFSRHPVLCQSLLPILVQHITGPVRPRHQACLLLQKTLSMREVRSCFEDPEWKQLMGQVLAKVTENLRVLGEAQTKAQHQQALSSLELLNVLFRTCKHEKLTLDLTVLLGVLQGQQQSLQQGAHSTGSSRLHDLYWQAMKTLGVQRPKLEKKDAKEIPSATQSPISKKRKKKGFLPETKKRKKRKSEDGTPAEDGTPAATGGSQPPSMGRKKRNRTKAKVPAQANGTPTTKSPAPGAPTRSPSTPAKSPKLQKKNQKPSQVNGAPGSPTEPAGQKQHQKALPKKGVLGKSPLSALARKKARLSLVIRSPSLLQSGAKKKAQVRKAGKP

binding: binds
B8: SRSF2 (protein, UniProt Q01130 1-221)
chain: MSYGRPPPDVEGMTSLKVDNLTYRTSPDTLRRVFEKYGRVGDVYIPRDRYTKESRGFAFVRFHDKRDAEDAMDAMDGAVLDGRELRVQMARYGRPPDSHHSRRGPPPRRYGGGGYGRRSRSPRRRRRSRSRSRSRSRSRSRSRYSRSKSRSRTRSRSRSTSKSRSARRSKSKSSSVSRSRSRSRSRSRSRSPPPVSKRESKSRSRSKSPPKSPEEEGAVSS

No constants are given. Whether binding was seen depends on the method and setting. Binding seen in cells or lysates may run through a third protein. A yes stands for co-enrichment or nearness to the bait. Other partners may have been found. Sequences can lack the tags named with a protein. Each block holds one binder with its values, some of them ahead of it.
